The values are deposited in ChEMBL (CHEMBL3988442, “University of Dundee, Small-Polar-MMV Screening Library” (2021)).

Values are the deposited “Percent Effect”, in %.
The record does not define 0% and 100%; most values in the screen are far below 50% and negative numbers occur (in some assays of this library far below -100).
Compounds were drawn at random from those tested, without regard to their results.
Two or more numbers in one place are separate tests of the same structure; such repeats can differ widely.
A dash means the value is not listed here; it may have been measured.

Toxoplasma: 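Assay of Toxoplasma gondii numbers, read through their beta-galactosidase reporter with a colour substrate. Compounds at 10 µM. The record gives no direction; the compounds picked for IC50 retests had high values, so higher reads as fewer parasites. Of about 67,000 compounds tested this way, about 260 (0.38%) reached 50% or more in at least one test.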
T. brucei: 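Whole-parasite assay of Trypanosoma brucei over 72 hours; the read-out is not stated. Tested at 30 µM. The record gives no direction; compounds that gave an IC50 in retests scored well above the rest, so higher reads as stronger inhibition. Values scatter widely below zero; nearly all retest evidence comes from the higher of the two concentrations used. Size under these conditions: about 64,000 compounds, about 940 of them at 50% or above in at least one test.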
Leishmania in macrophages: 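Cell assay of Leishmania donovani living inside macrophages; the read-out is not stated. Tested at 30 µM. Higher reads as stronger inhibition (inferred: compounds with an IC50 in retests scored well above the rest). Size under these conditions: about 69,000 compounds, about 1,000 of them at 50% or above in at least one test.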

Compound | Toxoplasma | T. brucei | Leishmania in macrophages
CNC(=O)C1Cc2ccccc2CN1CCC#N (centres unmarked) | 1.955 | -56.97 | 1.919
COc1cccc(CN2CCN(CC(C)C)C(=O)C2C)c1O (centres unmarked) | -3.64 | -16.12 | 14.28
Cc1ccc(Nc2nccc(C3CCN(C(=O)CN)C3)n2)nc1.Cl (centres unmarked) | -27.76 | -3.856 | 22.69 & 21.29
CC(NC(=O)CCCN(C)C)c1cn(-c2ccccc2)nn1 (centres unmarked) | 10.15 | -12.44 | -12.46
COc1ccc(-c2nonc2N)cc1 | 27.79 | -18.18 | 16.1
CC1NC(=O)COC12CCN(C(=O)Cc1ccsc1)CC2 (centres unmarked) | 1.564 | -69.14 | 19.38
Cc1nnc(NCCc2coc(-c3ccc(F)cc3)n2)c(C#N)c1C | -5.783 | 9.241 | 22.81
CC(O)CN1CCN(C(=O)c2cnn(-c3ccccc3Cl)c2)CC1 (centres unmarked) | 1.512 | -14.61 | -5.795
O=C1CC(N(C(=O)c2ccc3c(c2)CCC3)C2CC2)C(=O)N1 (centres unmarked) | - | -38.52 | 4.724
COCCN(C)CC1CCCN1S(=O)(=O)c1cc(C)oc1C (centres unmarked) | 7.611 | -6.519 | 14.34
CCc1ncc(C(=O)NCC2CCN(Cc3ccncc3)CC2)cn1 | 5.501 | -0.1064 | 3.367
CC(C)c1nc(CN2CCCN(c3nccs3)CC2)no1 | -7.993 | - | -10.06
CCn1nnnc1-c1cccc(NC(=O)CCn2cc(C)cn2)c1 | -14.76 | -16.62 | 12.61
[H][C@@]12C[C@@H](Oc3cncnc3)CN1CCN(C(=O)c1ccco1)C2 | -1.847 | -13.62 | 5.056
[H][C@]12CCCCN1CCC[C@H]2CNC(=O)Cn1ccc2ccc(Br)cc21 | -3.706 | -25.52 | -30.69
CC(C)OCCNC1(c2ccc(F)cc2)CCOCC1 | 7.621 | 7.119 | 25.58
Cc1nn(-c2ccccc2)nc1C(=O)N1CCCC1c1cnn(C)c1 (centres unmarked) | 3.446 | 2.15 | 21.52
O=C(c1cccc(Cl)c1Cl)N1CCN(CC(O)Cn2cccn2)CC1 (centres unmarked) | 3.258 | -23.61 | 16.18
O=C(O)C(F)(F)F.O=C(O)C(F)(F)F.[H][C@@]12CN(CCOC)CCO[C@]1([H])CN(Cc1ccccc1OC)C2 | -2.104 | -42.06 | 13.91
CCN(CC1CCOC1)C(=O)c1cn2ccc(C)cc2n1 (centres unmarked) | 4.224 | -0.09409 | 2.482
N#CC1(C(=O)N2CCOC(c3ccc(F)cc3)C2)CCCCC1 (centres unmarked) | 14.18 | -4.91 | 33.91
O=C(CSCc1ccncc1)NCC1CCN(C2CC2)C1 (centres unmarked) | 0.2803 | -3.693 | -5
CN(C)c1cc(CNc2ccc(S(=O)(=O)C(C)(C)C)nc2)ccn1 | -2.739 | -12.05 | 28.28
Cc1nccn1-c1cc(CNS(=O)(=O)N2CCCC(C)C2)ccn1 (centres unmarked) | -8.603 | -1.752 | 20.02
CN(C)CC(=O)N1CCCCC1c1nc(N)ncc1-c1ccccc1 (centres unmarked) | -0.5357 | -5.473 | -2.431
CC(CN1CCOCC1)NC(=O)c1cc(Cl)c2c(c1)OCCO2 (centres unmarked) | 12.49 | - | 3.098
O=C(O)C(F)(F)F.O=C(O)C(F)(F)F.[H][C@@]12C[C@@H](Oc3cncnc3)CN1CCN(C(=O)c1cccnc1)C2 | 3.571 | 15.73 | 18.9
Cl.Cn1cc([C@@H]2CN(S(=O)(=O)c3cccnc3)C[C@H]2N)c2ccncc21 | 9.716 | -9.979 | 21.32
O=C(c1ccccc1)N1CCC2(CC1)CC(Oc1ccccc1)CO2 (centres unmarked) | 7.908 | 11.28 | 30.41
COCCNC(=O)c1cc(-c2ccc3c(c2)CCO3)n[nH]1 | 5.979 | -2.597 | -2.658
O=C(NCC1Cn2nnc(-c3ccccc3)c2CO1)c1ccc[nH]1 (centres unmarked) | -0.7729 | 42.05 | 13.15
Cc1ccc(CN2CC(C(=O)Nc3ccccc3)C3(CCOCC3)C2)o1.O=C(O)C(F)(F)F (centres unmarked) | -1.869 | -35.03 | 21.57
O=C(O)C(F)(F)F.O=C(O)C(F)(F)F.[H][C@@]12CCCO[C@]1([H])[C@@H](OCc1ccncc1)CN2Cc1c(C)noc1C | -0.9588 | 3.056 | -1.973
Cc1ccccc1C1(C(=O)NCCN(C)C)CCOCC1 | -6.573 | 6.164 | 30.2
Cc1ncsc1C(=O)NC1CCN(CCCC#N)CC1 | -34.44 | 41.92 | 8.624
CC[C@H](C)Cn1nc(C2CCNCC2)n(Cc2ccccc2)c1=O | -21.66 | -18.53 | 22.75
Cc1ccc(C(=O)N2Cc3c(CN4CCCCC4)nn(C)c3C2)cc1C.O=C(O)C(F)(F)F | -12.2 | 13.3 | 24.14
O=C(C1CC(=O)N(C2CCCC2)C1)N1CCN(CCn2cccc2)CC1 (centres unmarked) | -1.872 | -17.46 | 19.14
COc1ccc2cc(C3CN(C(=O)COC(C)C)CCO3)ccc2c1 (centres unmarked) | 3.03 | -45.92 | 7.39
Cc1ccc(C(=O)N2CCc3ncnc(C)c3CC2)cn1 | 0.6197 | 1.33 | 17.2
O=C(OCC1CCCN(C(=O)c2ccccc2)C1)c1cscn1 (centres unmarked) | 5.587 | -68.26 | -48.09
O=C(c1cn(-c2ccccc2C(F)(F)F)nn1)N1CCSCC1 | -5.849 | -1.254 | -30.95 & 8.106
CN(CC1CCCCO1)c1nncc(-c2cccc(F)c2)n1 (centres unmarked) | 14.25 | -5.192 | 12.04
O=C(NCc1ccccc1F)Nc1ccn(CCN2CCOCC2)n1 | 15.5 | -73.57 | -8.826
O=C(O)[C@@H]1CCN(C(=O)c2ccccn2)[C@@H]1c1ccc(F)cc1 | - | - | 1.699
Cc1ccc(CN(C)C(=O)NCC(=O)NC(C)(C)C)s1 | 4.278 | 5.628 | 17.99
Cc1ccnn1CCC(=O)N1CCOC(CCc2ccccc2)C1 (centres unmarked) | -1.335 | 0.2846 | -3.63
O=C(O)[C@@H]1CN(C2CCCCC2)C[C@H]1C1CC1 | 18.42 | -64.63 | 23.68
CC(C)OCCCNC(=O)CS(=O)(=O)Cc1ccc(Cl)c(Cl)c1 | 2.859 | 27.91 | -3.911
CN(C)c1ccc(C(=O)N2CCCN(Cc3cscn3)CC2)nn1 | -6.444 | - | 1.821
[H][C@]12CCN(S(=O)(=O)c3ccc(F)cc3)[C@@]1([H])CC[C@@H](COC)O2 | -15.84 | -10.53 | -1.754
Cc1ccc(-c2ncc(C(=O)NS(C)(=O)=O)s2)c(C)c1 | 33.64 | -33.6 | -4.338

4 of the entries, repeated:

Compound	Toxoplasma	T. brucei	Leishmania in macrophages
Cc1nnc(NCCc2coc(-c3ccc(F)cc3)n2)c(C#N)c1C	-5.783	9.241	22.81
CC[C@H](C)Cn1nc(C2CCNCC2)n(Cc2ccccc2)c1=O	-21.66	-18.53	22.75
O=C(O)C(F)(F)F.O=C(O)C(F)(F)F.[H][C@@]12CN(CCOC)CCO[C@]1([H])CN(Cc1ccccc1OC)C2	-2.104	-42.06	13.91
CNC(=O)C1Cc2ccccc2CN1CCC#N (centres unmarked)	1.955	-56.97	1.919